# Test results published in PubChem BioAssay AID1487 (National Center for Advancing Translational Sciences (NCATS), 2009).
# “And” between values parts separate entries of the source, which are not always exact repeats. Equal entries are not always repeated. Some of the results follow. Shown are side measurements of this screen, not its main read-out; they come without a call. The list favours compounds with an active or inconclusive main result. Potencies come from curve fits of mixed quality, noted in brackets.
# Experiment: qHTS Assay for Modulators of Lamin A Splicing
# Details: HeLa LMNA splicing GFP/RFP minigene ratio, 48 h
# Summary of the method: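 S3 HeLa cells stably expressing lamin A-EGFP splicing minigene plus DsRed2, 600 cells/well, 48 h compound exposure at 37C. Laser-scanning cytometry; analysed as GFP (500-530 nm)/RFP (575-640 nm) total intensity ratio; 0.5% DMSO vehicle.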
# [1] = measured here: GFP splicing reporter channel
# [2] = measured here: RFP viability control channel
Structure (SMILES),AC50 [1],AC50 [2]
COc1ccccc1NS(=O)(=O)c1cccc(NC(=O)Nc2ccccc2)c1,"12.6 µM [rising, partial curve]","12.6 µM [rising, partial curve]"
Cc1ccc(CS(=O)(=O)c2cn(CC(=O)N(C)c3ccccc3)c3ccccc23)cc1,"2.24 µM [falling, partial curve]","11.2 µM [falling, partial curve]"
Cc1ccc(N=Cc2cccc(O)c2O)c(C)c1,"2.82 µM [falling, partial curve, poor fit]","2.51 µM [falling, partial curve]"
C[C@H]1Cc2c(-c3ccccc3)nc3c(c2CO1)CN(C(=O)C1CCCCC1)CC3,,"1 µM [rising, partial curve, poor fit]"
O=C1C2C3c4ccccc4C(c4ccccc43)C2C(=O)N1Cc1ccccn1 (configuration not stated),,"0.316 µM [falling, full curve]"
COc1ccc(N(Cc2cccs2)C(=O)c2ccccc2C)cc1,"3.98 µM [rising, full curve, poor fit]",
Cn1c(SCCOc2ccccc2Cl)nnc1-c1cccs1,,"35.5 µM [rising, single point]"
Cc1[nH]c(=O)c(C(=O)/C=C/c2ccccc2)c2c1CCCC2,"11.2 µM [falling, partial curve]","2 µM [rising, full curve]"
Cc1ccc2c(C)nc(N/C(N)=N/S(=O)(=O)c3ccc([N+](=O)[O-])cc3)nc2c1,"0.0282 µM [rising, full curve, poor fit]","35.5 µM [rising, single point]"
COc1cccc(N=Nc2c(N)[nH][nH]c2=O)c1,"10 µM [falling, partial curve]","11.2 µM [falling, partial curve, poor fit]"
N#Cc1ccc(CSc2nnc(-c3ccncc3)n2CCc2ccccc2)cc1,"11.2 µM [rising, single point]","15.8 µM [rising, single point]"
CC(=O)C1=C(C)N(Cc2ccccc2)C(=O)N[C@@H]1c1cccc(C(F)(F)F)c1,,"35.5 µM [rising, single point]"
Cc1nc2sccn2c1-c1nc(-c2cc3ccccc3o2)cs1,"39.8 µM [rising, partial curve, poor fit]",
N#CC(C(=O)NC1CC1)c1nc2ccccc2nc1N1CCCC1 (configuration not stated),,"35.5 µM [rising, single point]"
COc1cc(Cn2c(N)c(C#N)c3nc4ccccc4nc32)cc(OC)c1,"2.82 µM [rising, partial curve, poor fit]","2.82 µM [rising, partial curve, poor fit]"
Cc1cc(=O)oc2cc(OCc3ccc(C(=O)N4CCN(c5ccc([N+](=O)[O-])cc5)CC4)cc3)ccc12,,"15.8 µM [rising, partial curve]"
CCOC(=O)c1c(NC(=O)COc2ncnc3ccccc23)sc(C)c1C,"11.2 µM [rising, partial curve]",
O=C(Nc1cccc([N+](=O)[O-])c1)C(=O)N1CCCCC1,,"0.00316 µM [falling, full curve, poor fit]"
Fc1ccc(Nc2ncncc2-c2ccccc2C(F)(F)F)cc1,"0.1 µM [falling, full curve, poor fit]",
Cc1cccc(-n2nnnc2SCn2nnc3ccccc3c2=O)c1,,"14.1 µM [rising, single point]"
CC(C)(CNC(=S)NCCc1ccccc1)CNC(=S)NCCc1ccccc1,"15.8 µM [rising, single point]","20 µM [rising, partial curve]"
O=C(CNC(=O)c1ccco1)OCc1ccc(C(=O)c2ccccc2)cc1,"35.5 µM [falling, single point]","17.8 µM [falling, partial curve, poor fit]"
CCn1cnc2c(cnn2-c2ccccc2)c1=O,"14.1 µM [rising, single point]",
Cc1nn(C)c(C)c1CNC(=O)c1cc2n(n1)C(C(F)(F)F)CC(c1cccs1)N2 (configuration not stated),"10 µM [rising, partial curve]","14.1 µM [rising, partial curve]"
Cc1nc(N2CCCC2)c2c(C(=O)Nc3ccc(C)c(Cl)c3)c(C)oc2n1,,"1.26 µM [rising, full curve, poor fit]"
COc1ccc(-c2noc(CN(C)C(=O)Nc3ccccc3)n2)cc1,,"22.4 µM [rising, partial curve, poor fit]"
COc1ccc(S(=O)(=O)N(CC(=O)N2CCN(c3ccccc3)CC2)c2ccccc2)cc1,,"31.6 µM [rising, single point]"
CCC(=O)N1CCN(c2ccccc2NC(=O)c2ccc(-c3cccc([N+](=O)[O-])c3)o2)CC1,,"3.98 µM [rising, full curve]"

# Arranged by molar mass (ascending): some entries from above.
Structure (SMILES),AC50 [1],AC50 [2]
N#CC(C(=O)NC1CC1)c1nc2ccccc2nc1N1CCCC1 (configuration not stated),,"35.5 µM [rising, single point]"
O=C(CNC(=O)c1ccco1)OCc1ccc(C(=O)c2ccccc2)cc1,"35.5 µM [falling, single point]","17.8 µM [falling, partial curve, poor fit]"
Cc1nc(N2CCCC2)c2c(C(=O)Nc3ccc(C)c(Cl)c3)c(C)oc2n1,,"1.26 µM [rising, full curve, poor fit]"
CC(C)(CNC(=S)NCCc1ccccc1)CNC(=S)NCCc1ccccc1,"15.8 µM [rising, single point]","20 µM [rising, partial curve]"

# (continued)

Structure (SMILES),AC50 [1],AC50 [2]
Cc1ccc(/C=N/NC(=O)CSc2nc3ccccc3c(=O)n2-c2ccccc2)s1,"0.178 µM [rising, full curve, poor fit]","0.141 µM [rising, full curve, poor fit]"
O=c1c2cn[nH]c2nc(SCc2ccc3c(c2)OCCO3)n1-c1ccccc1,"35.5 µM [rising, single point]",
Cc1ccc(OCc2nc(C#N)c(NCCCn3ccnc3)o2)cc1,,"15.8 µM [rising, single point]"
COc1ccc(OC)c(Nc2ccc(Nc3cc(OC)ccc3OC)nn2)c1,,"17.8 µM [rising, single point]"
CC1CCCN(Cc2csc(N)n2)C1 (configuration not stated),"0.0562 µM [falling, full curve, poor fit]","0.02 µM [falling, full curve, poor fit]"
COc1ccc(/C=C/c2nc3ccccc3n2C)cc1,"28.2 µM [falling, single point]","35.5 µM [falling, single point]"
Cc1c(NC(=O)/C(C#N)=C/c2ccc(-c3ccc(Cl)cc3)o2)c(=O)n(-c2ccccc2)n1C,,"35.5 µM [rising, single point]"
O=S(=O)(Nc1cccc(Cl)c1)c1ccc2[nH]c3c(c2c1)CCCCCC3,"12.6 µM [falling, partial curve]","22.4 µM [falling, partial curve]"
CCOC(=O)Cc1nnc(NC(=O)CSc2ncc(-c3ccccc3)nn2)s1,"6.31 µM [rising, single point]",
COc1ccc(NC(=O)C2CCCN(S(=O)(=O)c3c(C)n[nH]c3C)C2)cc1 (configuration not stated),,"31.6 µM [rising, single point]"
Clc1ccc(Nc2ccc(NCc3ccccc3)nn2)cc1,"1.26 µM [rising, partial curve]","25.1 µM [rising, single point]"
COc1ccccc1-c1ccc2ncnc(NC3CCNCC3)c2c1,"11.2 µM [falling, partial curve]",
Cc1coc2c1C(=O)C(=O)c1c-2ccc2c1CCCC2(C)C,"17.8 µM [falling, single point]","14.1 µM [falling, single point]"
CC(C)c1ccc(S(=O)(=O)N2CCN(C(=S)NCc3ccco3)CC2)cc1,,"25.1 µM [rising, single point]"
Cn1c(/N=C/c2c(O)ccc3ccccc23)nc2ccccc21,,"5.62 µM [rising, single point]"
O=c1c(-c2ccccc2)nc2cnc(Oc3ccccc3)nc2n1C[C@H]1CCCO1,"6.31 µM [falling, partial curve]",
CCCCN(CCCNC(=O)CN1N=C(c2ccccc2)CCC1=O)c1ccccc1,"35.5 µM [falling, single point]",
O=C(COc1ccccc1Cl)Nc1nc2c(s1)CCCC2,"35.5 µM [falling, partial curve, poor fit]",
O=C(CSc1nc(C2CCCCC2)nc2ccccc12)NCc1ccc2c(c1)OCO2,,"15.8 µM [rising, single point]"
O=[N+]([O-])c1ccc(CN2CCN(Cc3c[nH]c4ccccc34)CC2)cc1,"3.16 µM [falling, partial curve, poor fit]",
COc1ccc(Br)cc1CN(C)C(C)C(=O)Nc1cc([N+](=O)[O-])ccc1OC (configuration not stated),,"10 µM [rising, partial curve, poor fit]"
Cc1c(O)nc(SCC(=O)Nc2ccc3c4c(cccc24)CC3)n(-c2ccc(F)cc2)c1=O,"20 µM [rising, partial curve, poor fit]","6.31 µM [rising, partial curve, poor fit]"
CSCc1cc(N(C)C)nc(SCc2ccc(Cl)cc2Cl)n1,"35.5 µM [rising, single point]","31.6 µM [rising, single point]"
CCOC(=O)C1=C(O)c2ccccc2C(=O)/C1=C\c1ccc(C)cc1,"11.2 µM [rising, single point]","12.6 µM [rising, partial curve]"
COc1cc(NC(=O)CN2c3cccc4cccc(c34)S2(=O)=O)cc(OC)c1OC,,"12.6 µM [rising, partial curve]"
CC(=O)c1cccc(NC(=S)NC(=O)c2ccccc2Br)c1,"7.08 µM [rising, partial curve, poor fit]","0.0562 µM [rising, full curve, poor fit]"
CNCCCC12CCC(c3ccccc31)c1ccccc12,"8.91 µM [falling, single point] and 14.1 nM [falling, full curve, poor fit] and 10 µM [falling, partial curve, poor fit]","35.5 µM [rising, single point] and 11.2 µM [falling, single point] and 31.6 µM [rising, single point]"
